The results in this text go back to patent US20070271623A1 (UNIVERSITY OF COPENHAGEN, published 2007).

Assay [1] deals with T1, MKS1 as bait (BD fusion), MKS1-BD (Arabidopsis thaliana).
T1 construct: also called MKS1 bait; MAP Kinase Substrate 1
Nature of the assay: directed yeast two-hybrid assay.

Assay [2] concerns the target T2, MPK4 as bait (BD fusion) (Arabidopsis thaliana, UniProt P04386 1-147; Q39024 1-376).
T2 construct: also called MPK4 bait
Nature of the assay: directed yeast two-hybrid assay.

B1: WRKY26 as prey (AD fusion) (other, UniProt Q9C5T3 1-309, looked up, not shown: large carriers)
chain: MGSFDRQRAVPKFKTATPSPLPLSPSPYFTMPPGLTPADFLDSPLLFTSSNILPSPTTGTFPAQSLNYNNNGLLIDKNEIKYEDTTPPLFLPSMVTQPLPQLDLFKSEIMSSNKTSDDGYNWRKYGQKQVKGSENPRSYFKCTYPNCLTKKKVETSLVKGQMIEIVYKGSHNHPKPQSTKRSSSTAIAAHQNSSNGDGKDIGEDETEAKRWKREENVKEPRVVVQTTSDIDILDDGYRWRKYGQKVVKGNPNPRSYYKCTFTGCFVRKHVERAFQDPKSVITTYEGKHKHQIPTPRRGPVLRLLGKTET
notes: mature
Consider B1, for which, in assay [1], the binding result was “no binding”.

B2: WRKY33 as prey (AD fusion) (other, Arabidopsis thaliana, UniProt Q8S8P5 332-519, looked up, not shown: large carriers)
chain: NETNGGNGGGSKTVREPRIVVQTTSDIDILDDGYRWRKYGQKVVKGNPNPRSYYKCTTIGCPVRKHVERASHDMRAVITTYEGKHNHDVPAARGSGYATNRAPQDSSSVPIRPAAIAGHSNYTTSSQAPYTLQMLHNNNTNTGPFGYAMNNNNNNSNLQTQQNFVGGGFSRAKEEPNEETSFFDSFMP
notes: The library hits were five different truncated WRKY33 proteins; also called W33; transcription factor WRKY33
As to B2, in assay [2], the binding result is “no binding”.
